PubChem BioAssay AID504808 – Drosophila RNAi Screening Center, 2011

Assay: 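Fly genes required to hold E2F transcription in check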 (primary screen)
System: Drosophila S2 cells
Knock-down reagent: long dsRNA against Drosophila genes
Measurement: 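Firefly luciferase driven by E2F sites, normalised to Renilla luciferase on the same minimal promoter, measured by plate reader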
Direction: E2F firefly: higher = more E2F reporter activity; Renilla normaliser: higher = more normaliser reporter signal
Hit rule: 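Called active if the normalised E2F reporter went up by over 50%; the cutoff is arbitrary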
In all, the deposit lists about 21,000 reagents; this is an unselected part of those with a known target gene and a result. In the full data, 18 (0.084%) are marked active. 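Raw counts without plate normalisation, one of two replicates; the ratio scores behind the calls were not deposited.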 The numbers tell different reagents against one gene apart. Names joined by + are all predicted targets of the reagent. Not given: the amount of reagent, the time to read-out.

target	reagent	E2F firefly, rep 1	Renilla normaliser, rep 1	Call
CG3376	1	80345	3309	inactive
Rhau (RHAU helicase)	1	86809	3814	inactive
Ugt49C1 (UDP-glycosyltransferase family 49 member C1)	1	1.07e5	4284	inactive
CG11192	1	1.38e5	4894	inactive
CG15499 (retired record)	1	1.36e5	6117	inactive
fh (frataxin)	1	62768	4755	inactive
CG7634	1	1.48e5	7713	inactive
CG10749	1	1.38e5	7070	inactive
RhoGEF3 (Rho guanine nucleotide exchange factor 3)	1	1.01e5	4199	inactive
RhoGEF3 (Rho guanine nucleotide exchange factor 3)	2	97833	4419	inactive
Atat (alpha-tubulin acetylase)	1	76822	3650	inactive
PAPLA1 (Phosphatidic Acid Phospholipase A1)	1	87595	4144	inactive
PAPLA1 (Phosphatidic Acid Phospholipase A1)	2	1.42e5	4663	inactive
CG33639	1	1.57e5	6883	inactive
ppk23 (pickpocket 23)	1	1.49e5	6621	inactive
CG7069	1	68193	3468	inactive
CG32855	1	92368	2516	inactive
peb (pebbled)	1	44444	3379	inactive
Cbl (Cbl proto-oncogene)	1	89430	4255	inactive
Cbl (Cbl proto-oncogene)	2	1.06e5	4045	inactive
CG5646	1	1737	948	inactive
Prx4 (Peroxiredoxin 4)	1	99470	4221	inactive
CG14440	1	84176	4432	inactive
CG7518	1	66471	3263	inactive
MCU (Mitochondrial calcium uniporter)	1	1.03e5	4093	inactive
yellow-e	1	88499	2329	inactive
yellow-e	2	1.18e5	5747	inactive
CG13950	1	1.66e5	6269	inactive
CG13627	1	1.20e5	5027	inactive
fwe (flower)	1	1.39e5	4297	inactive
fwe (flower)	2	76907	4045	inactive
CG34327	1	2.33e5	5373	inactive
Bfc (Booster for Crq)	1	1.05e5	4714	inactive
ND-13B (NADH dehydrogenase (ubiquinone) 13 kDa B subunit)	1	1.27e5	7482	inactive
Sema5c (Semaphorin 5c)	1	1.12e5	6081	inactive
CG8414	1	1.47e5	5284	inactive
Ccdc58 + CG34116	1	1.34e5	7031	inactive
CG13070	1	1.55e5	7678	inactive
CG7213	1	96711	3555	inactive
CG4553	1	1.06e5	5497	inactive
CG14075	1	1.16e5	5457	inactive
CG30098	1	1.56e5	5029	inactive
Ppi1 (Protein phosphatase 1c interacting protein 1)	1	1807	916	inactive
pip (pipe)	1	1.38e5	6320	inactive
Cep164 (centrosomal protein 164)	1	2.49e5	7351	inactive
CG2871	1	67892	4879	inactive
Muc91C (Mucin 91C)	1	1.49e5	7686	inactive
Vti1a (Vesicle transport through interaction with t-SNAREs 1a)	1	81263	3927	inactive
GlcT (Glucosylceramide synthase)	1	79017	3364	inactive
nclb (no child left behind)	1	1.38e5	4918	inactive
Prp19 (Pre-RNA processing factor 19)	1	1.11e5	4862	inactive
tral (trailer hitch)	1	46751	163	inactive
CG4287	1	62879	3007	inactive
slmo + CG34179	1	75860	3341	inactive
CG8545	1	159	34	inactive
Spn77Bb + Spn77Bc	1	1.26e5	7492	inactive
Spn77Bb + Spn77Bc	2	1.39e5	7829	inactive
PpD3 (Protein phosphatase D3)	1	1.51e5	7343	inactive
CG13727	1	1.70e5	8737	inactive
shd (shade)	1	1.64e5	8521	inactive
CG9903	1	1.41e5	17702	inactive
CG4575 (retired record)	1	1.05e5	5650	inactive
Gbp3 (Growth-blocking peptide 3)	1	98941	6001	inactive
CG32988	1	1.54e5	5531	inactive
CG6325	1	65218	3428	inactive
CG42516 + Pbp49	1	2642	238	inactive
Cpr62Bc (Cuticular protein 62Bc)	1	97516	4202	inactive
CG7251	1	91595	3661	inactive
CG31729	1	77940	3802	inactive
CG31729	2	82366	3950	inactive
cDIP (Common Dpr-interacting protein)	1	68350	3276	inactive
CG42634 + CG42635	1	1.05e5	4743	inactive
CG5715	1	1.02e5	7096	inactive
Naglu (N-acetyl-alpha-glucosaminidase)	1	86461	3732	inactive
CG10348	1	1.03e5	4274	inactive
ps (pasilla)	1	1.38e5	6190	inactive
ps (pasilla)	2	1.13e5	5052	inactive
ps (pasilla)	3	82024	4261	inactive
ps (pasilla)	4	1.47e5	6134	inactive
Tango14 (Transport and Golgi organization 14)	1	1.58e5	5986	inactive
CG8301	1	1.44e5	6574	inactive
CG2765	1	81315	3490	inactive
Dis3l2 (Dis3 like 3'-5' exoribonuclease 2)	1	81999	3215	inactive
emei	1	1.06e5	5431	inactive
eIF4E6 (eukaryotic translation initiation factor 4E6)	1	1.31e5	5605	inactive
bero (belly roll)	1	96536	4162	inactive
CG31365	1	69236	3190	inactive
CG13631	1	67751	2893	inactive
gt (giant)	1	98592	4591	inactive
CG8834	1	88311	4603	inactive
CG15269	1	89192	4006	inactive
CG14354	1	95581	6072	inactive
CG12594	1	1.41e5	6958	inactive
CG18180	1	82502	3846	inactive
CG7906	1	85018	3272	inactive
CG30349	1	1.44e5	4677	inactive
CG30349	2	1.53e5	4474	inactive
CG13653	1	1.08e5	6284	inactive
Mco4 (Multicopper oxidase 4)	1	1.92e5	6423	inactive
stmA (stambha A)	1	1.33e5	5511	inactive
stmA (stambha A)	2	3185	247	inactive
Cyp6a15Psi (pseudo)	1	1.43e5	5099	inactive
SA1 (Stromalin 1)	1	1.10e5	3956	inactive
VhaAC39-1 (Vacuolar H[+] ATPase AC39 subunit 1)	1	1957	948	inactive
mof (males absent on the first)	1	39920	3598	inactive
CG3036	1	1.46e5	6205	inactive
CG3036	2	1.07e5	3987	inactive

9 entries from above, sorted by “Renilla normaliser, rep 1”, low to high:
target	reagent	E2F firefly, rep 1	Renilla normaliser, rep 1	Call
tral (trailer hitch)	1	46751	163	inactive
CG4287	1	62879	3007	inactive
GlcT (Glucosylceramide synthase)	1	79017	3364	inactive
Vti1a (Vesicle transport through interaction with t-SNAREs 1a)	1	81263	3927	inactive
Prp19 (Pre-RNA processing factor 19)	1	1.11e5	4862	inactive
CG2871	1	67892	4879	inactive
nclb (no child left behind)	1	1.38e5	4918	inactive
Cep164 (centrosomal protein 164)	1	2.49e5	7351	inactive
Muc91C (Mucin 91C)	1	1.49e5	7686	inactive
